Measurements as given in article doi:10.1101/2023.03.13.531998.
No constants are given. Whether binding was seen depends on the method and setting. Binding seen in cells or lysates may run through a third protein. Some binding calls cover weakened binding; strength is not graded here.

By UniProt entry, the sequences of proteins in these tests, tags left out.
UniProt O00571: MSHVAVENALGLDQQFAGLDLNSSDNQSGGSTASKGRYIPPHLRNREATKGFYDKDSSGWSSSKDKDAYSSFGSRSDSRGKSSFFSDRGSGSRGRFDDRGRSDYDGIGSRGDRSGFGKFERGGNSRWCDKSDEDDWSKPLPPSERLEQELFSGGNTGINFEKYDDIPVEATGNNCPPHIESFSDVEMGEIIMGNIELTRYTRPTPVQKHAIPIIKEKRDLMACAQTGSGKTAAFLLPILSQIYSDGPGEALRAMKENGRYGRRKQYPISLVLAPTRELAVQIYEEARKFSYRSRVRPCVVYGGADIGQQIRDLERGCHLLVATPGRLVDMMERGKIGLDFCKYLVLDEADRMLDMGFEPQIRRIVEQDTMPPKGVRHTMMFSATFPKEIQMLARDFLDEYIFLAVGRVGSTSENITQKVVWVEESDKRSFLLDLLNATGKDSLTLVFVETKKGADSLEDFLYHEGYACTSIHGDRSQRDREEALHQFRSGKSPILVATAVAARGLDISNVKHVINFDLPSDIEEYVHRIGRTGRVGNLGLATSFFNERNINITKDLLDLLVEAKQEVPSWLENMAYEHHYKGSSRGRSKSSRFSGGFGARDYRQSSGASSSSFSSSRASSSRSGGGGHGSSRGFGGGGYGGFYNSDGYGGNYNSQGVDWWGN
UniProt Q9NRC8: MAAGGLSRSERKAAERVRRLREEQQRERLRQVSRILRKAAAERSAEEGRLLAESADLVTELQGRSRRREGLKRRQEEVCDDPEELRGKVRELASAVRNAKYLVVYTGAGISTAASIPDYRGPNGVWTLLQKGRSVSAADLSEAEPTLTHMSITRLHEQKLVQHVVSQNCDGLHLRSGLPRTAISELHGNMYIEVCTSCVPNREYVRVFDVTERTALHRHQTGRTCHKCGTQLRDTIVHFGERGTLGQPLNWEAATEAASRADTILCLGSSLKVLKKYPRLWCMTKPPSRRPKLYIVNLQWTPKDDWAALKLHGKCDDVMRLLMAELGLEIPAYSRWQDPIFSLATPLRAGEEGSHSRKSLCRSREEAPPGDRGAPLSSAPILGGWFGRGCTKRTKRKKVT

Target: HA-DDX3X (UniProt O00571)
Test: co-IP

binding: binds
Substance: FLAG-SIRT7 (from UniProt Q9NRC8 1-400) (enzyme)
